# Laboratory results as given in patent publication US9101616B2, “Aryl substituted carboxamide derivatives as calcium or sodium channel blockers” (RaQualia Pharma Inc., priority 2009, dated 2015).
# Some entries share one result that the patent states for a list of compounds.
# Test system: human NaV1.3 or human NaV1.7 channels
# Experiment: NaV1.3 FRET or NaV1.7 FRET Assays (result not assigned to one channel)
# Type: cell-based
# Settings: which one not given
row,SMILES,IC50 [nM]
1,"C[C@@H](NC(=O)c1csc(-c2ccc(C(F)(F)F)cc2)n1)c1ccc(OCC(F)(F)F)cn1 [Example 70, (R)-N-(1-(5-(2,2,2-trifluoroethoxy)pyridin-2-yl)ethyl)-2-(4-(trifluoromethyl)phenyl)thiazole-4-carboxamide]",≤ 1000
2,"C[C@@H](NC(=O)CCn1ccc2ccc(F)cc21)c1ccc(OCC2CC2)cn1 [Example 74, (R)-N-(1-(5-(cyclopropylmethoxy)pyridin-2-yl)ethyl)-3-(6-fluoro-1H-indol-1-yl)propanamide]",≤ 1000
3,"C[C@@H](NC(=O)CCc1c(-c2ccccc2)[nH]c2ccc(F)cc12)c1ccc(OCC(F)(F)F)cn1 [Example 75, (R)-3-(5-fluoro-2-phenyl-1H-indol-3-yl)-N-(1-(5-(2,2,2-trifluoroethoxy)pyridin-2-yl)ethyl)propanamide]",≤ 1000
4,"C[C@@H](NC(=O)CCc1c(-c2ccccc2)[nH]c2ccc(F)cc12)c1ccc(OCC2CC2)cn1 [Example 76, (R)-N-(1-(5-(cyclopropylmethoxy)pyridin-2-yl)ethyl)-3-(5-fluoro-2-phenyl-1H-indol-3-yl)propanamide]",≤ 1000
5,"C[C@@H](NC(=O)COc1ccc(C(F)(F)F)cc1)c1ccc(OCc2ccccc2F)cn1 [Example 77, (R)-N-(1-(5-(2-fluorobenzyloxy)pyridin-2-yl)ethyl)-2-(4-(trifluoro-methyl)phenoxy)acetamide]",≤ 1000
6,"Cc1nc([C@@H](C)NC(=O)COc2ccc(C(F)(F)F)cc2)ccc1OCC(F)(F)F [Example 78, (R)-N-(1-(6-methyl-5-(2,2,2-trifluoroethoxy)pyridin-2-yl)ethyl)-2-(4-(trifluoro-methyl)phenoxy)acetamide]",≤ 1000
7,"C[C@@H](NC(=O)c1ccc(OCC(F)(F)F)cn1)c1ccc(OCC(F)(F)F)cn1 [Example 80, (R)-5-(2,2,2-trifluoroethoxy)-N-(1-(5-(2,2,2-trifluoroethoxy)pyridin-2-yl)ethyl)picolinamide]",≤ 1000
8,"C[C@@H](NC(=O)[C@H]1C[C@]1(C)c1ccc(C(F)(F)F)cc1)c1ccc(OCc2ccccc2F)cn1 [Example 82, (1S,2S)-N-((R)-1-(5-(2-fluorobenzyloxy)pyridin-2-yl)ethyl)-2-methyl-2-(4-(trifluoro-methyl)phenyl) cyclopropanecarboxamide]",≤ 1000
9,"C[C@@H](NC(=O)[C@H]1C[C@]1(C)c1ccc(C(F)(F)F)cc1)c1ccc(OCc2ccccc2F)nc1 [Example 85, (1S,2S)-N-((R)-1-(6-(2-fluorobenzyloxy)pyridin-3-yl)ethyl)-2-methyl-2-(4-(trifluoro-methyl)phenyl) cyclopropanecarboxamide]",≤ 1000
10,"C[C@@H](NC(=O)CCc1c[nH]c2ccccc12)c1ccc(OCc2ccccc2F)nc1 [Example 86, (R)-N-(1-(6-(2-fluorobenzyloxy)pyridin-3-yl)ethyl)-3-(1H-indol-3-yl)propanamide]",≤ 1000
11,"C[C@@H](NC(=O)CCc1c[nH]c2ccccc12)c1ccc(OCc2ccccc2F)cn1 [Example 87, (R)-N-(1-(5-(2-fluorobenzyloxy)pyridin-2-yl)ethyl)-3-(1H-indol-3-yl)propanamide]",≤ 1000
12,"C[C@@H](NC(=O)c1coc(-c2ccc(C(F)(F)F)cc2)n1)c1ccc(OCC(F)(F)F)cn1 [Example 88, (R)-N-(1-(5-(2,2,2-trifluoroethoxy)pyridin-2-yl)ethyl)-2-(4-(trifluoromethyl)phenyl)oxazole-4-carboxamide]",≤ 1000
13,"C[C@@H](NC(=O)/C=C/c1c[nH]c2ccccc12)c1ccc(OCC(F)(F)F)cn1 [Example 89, (R,E)-3-(1H-indol-3-yl)-N-(1-(5-(2,2,2-trifluoroethoxy)pyridin-2-yl)ethyl)acrylamide]",≤ 1000
14,"C[C@@H](NC(=O)/C=C/c1c[nH]c2ccccc12)c1ccc(OCC(F)(F)F)nc1 [Example 90, (R,E)-3-(1H-indol-3-yl)-N-(1-(6-(2,2,2-trifluoroethoxy)pyridin-3-yl)ethyl)acrylamide]",≤ 1000
15,"C[C@@H](NC(=O)[C@@H]1C[C@H]1c1ccc(C(F)(F)F)cc1)c1ccc(OCC(F)(F)F)cn1 [Example 91, (1R,2R)-N-((R)-1-(5-(2,2,2-trifluoro-ethoxy)pyridin-2-yl)ethyl)-2-(4-(trifluoro-methyl)phenyl) cyclopropanecarboxamide]",≤ 1000
16,"C[C@@H](NC(=O)[C@@H]1C[C@H]1c1ccc(C(F)(F)F)cc1)c1ccc(OCC(F)(F)F)nc1 [Example 92, (1R,2R)-N-((R)-1-(6-(2,2,2-trifluoro-ethoxy)pyridin-3-yl)ethyl)-2-(4-(trifluoro-methyl)phenyl) cyclopropanecarboxamide]",≤ 1000
17,"C[C@@H](NC(=O)CCc1c[nH]c2ccccc12)c1ccc(OCC(F)(F)F)nc1 [Example 93, (R)-3-(1H-Indol-3-yl)-N-(1-(6-(2,2,2-trifluoroethoxy)pyridin-3-yl)ethyl)propanamide]",≤ 1000
18,"C[C@@H](NC(=O)[C@H]1C[C@]1(C)c1ccc(C(F)(F)F)cc1)c1ccc(OCC(F)(F)F)nc1 [Example 94, (1S,2S)-2-methyl-N-((R)-1-(6-(2,2,2-trifluoro-ethoxy)pyridin-3-yl)ethyl)-2-(4-(trifluoro-methyl)phenyl) cyclopropanecarboxamide]",≤ 1000

row,SMILES,IC50 [nM]
1,"C[C@@H](NC(=O)c1cc2cc(F)ccc2[nH]1)c1ccc(OCc2ccccc2F)cn1 [Example 95, (R)-5-fluoro-N-(1-(5-(2-fluorobenzyloxy)pyridin-2-yl)ethyl)-1H-indole-2-carboxamide]",≤ 1000
2,"C[C@@H](NC(=O)[C@H]1C[C@]1(C)c1ccc(C(F)(F)F)cc1)c1ccc(OCC2(C)CC2)cn1 [Example 99, (1S,2S)-2-methyl-N-((R)-1-(5-((1-methylcyclopropyl)methoxy)pyridin-2-yl)ethyl)-2-(4-(trifluoromethyl)phenyl) cyclopropanecarboxamide]",≤ 1000
3,"CC(C)(C)c1ccc(C2CC2C(=O)NC2CCCc3cc(OCC(F)(F)F)cnc32)cc1 (stereo not drawn) [Example 102, trans-2-(4-tert-butylphenyl)-N-(3-(2,2,2-trifluoroethoxy)-5,6,7,8-tetrahydroquinolin-8-yl)cyclopropanecarboxamide]",≤ 1000
4,"C[C@@H](NC(=O)CCc1c[nH]c2ccccc12)c1ncc(OCC(F)(F)F)cc1F [Example 103, (R)-N-(1-(3-fluoro-5-(2,2,2-trifluoroethoxy)pyridin-2-yl)ethyl)-3-(1H-indol-3-yl)propanamide]",≤ 1000
5,"Cc1cc(OCC(F)(F)F)cnc1[C@@H](C)NC(=O)CCc1c[nH]c2ccccc12 [Example 104, (R)-3-(1H-indol-3-yl)-N-(1-(3-methyl-5-(2,2,2-trifluoroethoxy)pyridin-2-yl)ethyl)propanamide]",≤ 1000
6,"C[C@@H](NC(=O)c1ccc(C(C)(C)C)cc1)c1ccc(OCC(F)(F)F)nc1 [Example 113, (R)-4-tert-butyl-N-(1-(6-(2,2,2-trifluoroethoxy)pyridin-3-yl)ethyl)benzamide]",≤ 1000
7,"C[C@@H](NC(=O)c1ccc(Oc2ccccc2)cc1)c1ccc(OCC(F)(F)F)cn1 [Example 130, (R)-4-phenoxy-N-(1-(5-(2,2,2-trifluoroethoxy)pyridin-2-yl)ethyl)benzamide]",≤ 1000
8,"C[C@@H](NC(=O)c1cccc(Oc2ccccc2)c1)c1ccc(OCC(F)(F)F)cn1 [Example 131, (R)-3-phenoxy-N-(1-(5-(2,2,2-trifluoroethoxy)pyridin-2-yl)ethyl)benzamide]",≤ 1000
9,"COc1ccc2[nH]cc(C(=O)N[C@H](C)c3ccc(OCC(F)(F)F)cn3)c2c1 [Example 143, (R)-5-methoxy-N-(1-(5-(2,2,2-trifluoroethoxy)pyridin-2-yl)ethyl)-1H-indole-3-carboxamide]",≤ 1000
10,"C[C@@H](NC(=O)c1cc2ccc(F)cc2[nH]1)c1ccc(OCC(F)(F)F)nc1 [Example 146, (R)-6-fluoro-N-(1-(6-(2,2,2-trifluoroethoxy)pyridin-3-yl)ethyl)-1H-indole-2-carboxamide]",≤ 1000
11,"C[C@@H](NC(=O)c1cc2cc(Cl)ccc2n1C)c1ccc(OCC(F)(F)F)cn1 [Example 150, (R)-5-chloro-1-methyl-N-(1-(5-(2,2,2-trifluoroethoxy)pyridin-2-yl)ethyl)-1H-indole-2-carboxamide]",≤ 1000
12,"C[C@@H](NC(=O)c1cc2ccc(F)cc2n1C)c1ccc(OCC(F)(F)F)cn1 [Example 151, (R)-6-fluoro-1-methyl-N-(1-(5-(2,2,2-trifluoroethoxy)pyridin-2-yl)ethyl)-1H-indole-2-carboxamide]",≤ 1000
13,"Cc1c(C)n(C)c2ccc(C(=O)N[C@H](C)c3ccc(OCC(F)(F)F)cn3)cc12 [Example 152, (R)-1,2,3-trimethyl-N-(1-(5-(2,2,2-trifluoroethoxy)pyridin-2-yl)ethyl)-1H-indole-5-carboxamide]",≤ 1000
14,"C[C@@H](NC(=O)c1cc2ccc(Cl)cc2[nH]1)c1ccc(OCC(F)(F)F)cn1 [Example 154, (R)-6-chloro-N-(1-(5-(2,2,2-trifluoroethoxy)pyridin-2-yl)ethyl)-1H-indole-2-carboxamide]",≤ 1000
15,"C[C@@H](NC(=O)c1ccc(OC(F)(F)F)cc1)c1ccc(OCC(F)(F)F)cn1 [Example 156, (R)-N-(1-(5-(2,2,2-trifluoroethoxy)pyridin-2-yl)ethyl)-4-(trifluoromethoxy)benzamide]",≤ 1000
16,"C[C@@H](NC(=O)c1cc(-c2ccccc2)on1)c1ccc(OCC(F)(F)F)cn1 [Example 157, (R)-5-phenyl-N-(1-(5-(2,2,2-trifluoroethoxy)pyridin-2-yl)ethyl)isoxazole-3-carboxamide]",≤ 1000
17,"C[C@@H](NC(=O)c1cc2cc(OC(F)(F)F)ccc2[nH]1)c1ccc(OCC(F)(F)F)cn1 [Example 158, (R)-N-(1-(5-(2,2,2-trifluoroethoxy)pyridin-2-yl)ethyl)-5-(trifluoromethoxy)-1H-indole-2-carboxamide]",≤ 1000
18,"C[C@@H](NC(=O)c1cc2ccc(Cl)cc2n1C)c1ccc(OCC(F)(F)F)cn1 [Example 161, (R)-6-chloro-1-methyl-N-(1-(5-(2,2,2-trifluoroethoxy)pyridin-2-yl)ethyl)-1H-indole-2-carboxamide]",≤ 1000
